Measured values as given in article PMC12061305.
These are yes or no findings as the source states them, for the method shown. Binding seen in cells or lysates may run through a third protein. Some results given as binding are weak or reduced against the parent protein; the word gives no strength. For part of these data: Sequences can lack the tags named with a protein.

By UniProt entry, the sequences of proteins in these tests, tags left out.
UniProt Q8VEK3: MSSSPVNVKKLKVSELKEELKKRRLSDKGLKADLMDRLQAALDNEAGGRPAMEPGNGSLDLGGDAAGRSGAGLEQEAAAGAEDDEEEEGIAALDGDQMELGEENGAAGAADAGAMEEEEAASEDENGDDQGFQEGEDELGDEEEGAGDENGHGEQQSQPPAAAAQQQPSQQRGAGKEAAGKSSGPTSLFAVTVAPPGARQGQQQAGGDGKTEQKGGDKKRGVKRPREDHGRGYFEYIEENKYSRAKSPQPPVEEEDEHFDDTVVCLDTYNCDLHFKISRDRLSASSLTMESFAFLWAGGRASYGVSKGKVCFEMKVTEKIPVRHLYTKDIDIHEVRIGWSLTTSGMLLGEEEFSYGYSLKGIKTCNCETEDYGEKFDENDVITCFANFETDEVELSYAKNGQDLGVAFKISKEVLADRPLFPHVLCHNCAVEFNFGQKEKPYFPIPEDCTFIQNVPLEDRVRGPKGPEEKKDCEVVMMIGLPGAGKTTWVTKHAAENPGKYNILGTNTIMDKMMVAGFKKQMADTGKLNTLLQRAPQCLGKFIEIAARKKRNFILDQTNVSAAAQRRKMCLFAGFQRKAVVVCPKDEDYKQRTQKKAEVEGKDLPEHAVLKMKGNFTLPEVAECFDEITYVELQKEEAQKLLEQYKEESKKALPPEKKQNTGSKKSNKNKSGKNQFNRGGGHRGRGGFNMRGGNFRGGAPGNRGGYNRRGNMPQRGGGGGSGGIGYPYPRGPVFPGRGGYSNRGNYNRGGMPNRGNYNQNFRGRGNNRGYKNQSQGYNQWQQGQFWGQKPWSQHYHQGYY
UniProt Q9WV02: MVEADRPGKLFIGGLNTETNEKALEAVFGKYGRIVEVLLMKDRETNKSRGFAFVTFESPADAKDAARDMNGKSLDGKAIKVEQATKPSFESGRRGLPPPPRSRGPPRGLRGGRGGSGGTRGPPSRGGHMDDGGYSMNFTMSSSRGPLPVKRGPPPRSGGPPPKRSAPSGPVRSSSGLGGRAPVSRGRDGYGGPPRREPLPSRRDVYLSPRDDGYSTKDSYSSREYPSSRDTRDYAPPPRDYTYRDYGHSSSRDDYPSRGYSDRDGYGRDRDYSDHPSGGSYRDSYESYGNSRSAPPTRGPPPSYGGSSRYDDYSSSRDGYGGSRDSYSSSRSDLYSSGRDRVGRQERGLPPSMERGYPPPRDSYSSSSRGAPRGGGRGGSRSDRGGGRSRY
UniProt Q9Z204: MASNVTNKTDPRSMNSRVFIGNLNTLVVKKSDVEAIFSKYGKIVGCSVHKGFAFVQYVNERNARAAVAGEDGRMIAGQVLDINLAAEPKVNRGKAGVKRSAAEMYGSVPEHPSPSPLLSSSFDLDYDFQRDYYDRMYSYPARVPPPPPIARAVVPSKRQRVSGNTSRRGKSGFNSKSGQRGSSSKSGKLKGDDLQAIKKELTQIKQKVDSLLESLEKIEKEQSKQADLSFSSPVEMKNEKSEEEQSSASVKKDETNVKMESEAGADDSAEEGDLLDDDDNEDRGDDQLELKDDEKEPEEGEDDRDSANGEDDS

Experiments:
[1] = biological target: Hnrnpu (precipitated with anti-Hnrnpu antibody) (UniProt Q8VEK3); assay: co-IP; HEK293T cells transfected with plasmids expressing HA-labeled spliceosome complex components, with or without HA-Niban2 overexpression; co-IP with anti-Hnrnpu antibody or preimmune IgG; immunoblot
[2] = biological target: Flag-Hnrnpu (UniProt Q8VEK3); assay: co-IP; anti-Flag antibody for Flag-Hnrnpu or anti-HA antibody for HA-Niban2 (antibody-conjugated magnetic beads), immunoblot for Niban2 and Hnrnpu

| binding [1] | binding [2] | Molecule |
| --- | --- | --- |
| binds |  | HA-Rbmx (from UniProt Q9WV02 1-391) |
| binds weakly |  | Hnrnpc (from UniProt Q9Z204 1-313) |
|  | binds | HA-Niban2 (protein, UniProt Q8R1F1 1-749) MGDVLSTHLDDARRQHIAEKTEKILTEFLRFYEDQYGVSLFNSMRHEIEGTGPPQAQLLWRKVPLDERIIFSGNLFQYQEDNKKWRNRFSLVPHNYGLVLYENKVAYERQIPPRAVINSAGYKVLTSVDQYLELVGNSLPGTTSKSGSTPILKCPTQFPLILWHPYARHYYFCMMTEAEQDKWQAVLQDCVRHCNNGIPENSKVEGPAFTDAIRMYRQSKEQYGTWEMLCGNEVQILSNLVMEELGPALKAELGPRLKGKPQERQRQWIQISDAVYRLVFEQAKVHFEDVLCKLQRARPAMEAVIRTDMDQIITSKEHLASKIRAFILPKAEVCVRNHVQPYIPSILEALMVPTSQGFTEVRDVFFKEVTDMNLNVINEGGIDKLGEYMEKLSQLAYHPLKMQSCYEKMEPLRLDGLQQRFDVSSTSVFKQRAQIHMREQMDNAVYTFETLLHQELGKGPTKEELCKSIQRILERVLKKYDYDSSSVRKRFFREALLQITIPFLLKKLAPTCKSELPRFQELIFEDFARFILVENTYEEVVLQTVMKDILQAVKEAAVQRKHNLYRDSMVLHNSDPNLHLLAEGTPIDWGEQYGDSGDSGGGDSGGSPCPSEAATLTEKRRRAKQVMSVVQDEESGLPFEAGVEPPSPASPDSVTELRGLLAQDLQAESSPPASPLLNGAPVQESSQPVAVPEASPPASPLRHLPPGKAVDLEPPKPSDQETGEQVSSPGSRPPIHTTTEDSAGVQTEF |
